Laboratory results taken from PubChem BioAssay AID1439 (NMMLSC, 2008).
Hit rate of the full screen: of about 220,000 compounds, about 770 (0.35%) were called active. Inconclusive results, whose numbers are uncertain, are shown with a selection of clear calls. Cut-off read from the data, not from the text of the source: active = binding response below about 49% or above about 150%; inconclusive = no clear call, values can overlap the other calls; inactive = in between.

Chains of the proteins cited; added tags and fusions are not shown.
UniProt P09471, whole entry, looked up: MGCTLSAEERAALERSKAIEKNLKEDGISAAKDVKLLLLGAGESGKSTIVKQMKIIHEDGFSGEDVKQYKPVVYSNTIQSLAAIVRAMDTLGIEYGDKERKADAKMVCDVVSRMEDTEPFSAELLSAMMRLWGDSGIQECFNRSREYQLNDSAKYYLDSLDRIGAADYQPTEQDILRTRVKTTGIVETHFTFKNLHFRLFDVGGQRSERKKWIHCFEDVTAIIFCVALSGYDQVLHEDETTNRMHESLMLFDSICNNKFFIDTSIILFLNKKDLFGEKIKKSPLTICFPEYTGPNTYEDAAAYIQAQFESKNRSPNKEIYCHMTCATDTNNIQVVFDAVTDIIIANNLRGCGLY

molecular target: Guanine nucleotide-binding protein G(o) subunit alpha (Homo sapiens) (UniProt P09471); assay: RGS7-Galphao binding modulators, primary screen, biochemical, multiplexed bead flow cytometry (AID 1439); details: at 10 µM, actives lie on both sides;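 note: fluorescent Galphao held in activated GDP-AlF4 state binding bead-coupled RGS7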

| Structure (SMILES) | binding response (% of control) |
| --- | --- |
| Cn1ncc(Oc2ccc([N+](=O)[O-])cc2)c(Cl)c1=O | inconclusive: 105% |
| COc1ccc(Nc2nc(NN)nc(C)c2[N+](=O)[O-])cc1 | inconclusive: 126% |
| Cc1ccc(C(=O)N2N=C(CC(C)C)CC2(O)C(F)(F)F)o1 (centres undefined) | inconclusive: 112% |
| O=C(CSc1nc2ccccc2c(=O)[nH]1)Nc1ccc(C(=O)O)cc1 | inconclusive: 103% |
| COc1ccc(NC(=O)C2CCC(CNc3c(N4CCOCC4)c(=O)c3=O)CC2)cc1Cl (centres undefined) | inconclusive: 91.5% |
| CCOC(=O)c1ccc(NC(=O)c2nc[nH]c2C(=O)N[C@@H](CCCCNC(=O)OC(C)(C)C)C(=O)OC(C)(C)C)cc1 | inconclusive: 115% |
| Cc1onc(-c2c(F)cccc2Cl)c1C(=O)O/N=C(\N)c1ccc([N+](=O)[O-])o1 | inconclusive: 91.5% |
| Cn1c(CNC(=O)OC(C)(C)C)nnc1SCC(=O)N1CCOCC1 | inconclusive: 68.1% |
| CC(=O)N1N=C(c2ccco2)CC1c1cc2ccc(C)cc2nc1Cl (centres undefined) | inconclusive: 79.5% |
| O=c1cc(CO)[nH]cc1OCc1ccccc1 | inconclusive: 106% |
| Cc1cc(C)c2c(=O)n(CC(=O)Nc3cccc(Cl)c3C)sc2n1 | inconclusive: 90.3% |
| Cn1ccnc1SCC(=O)Nc1cccc2ccccc12 | inactive: 103% |
| O=C(CC1C(=O)NCCN1Cc1cccc(Oc2ccccc2)c1)NCCc1ccncc1 (centres undefined) | inactive: 102% |
| COc1ccc(S(=O)(=O)N2CCCC2)cc1C(C)C | inconclusive: 79.2% |
| O=C(c1cccc(S(=O)(=O)N2CCc3ccccc3C2)c1)N1CCN(c2ccc(O)cc2)CC1 | inactive: 102% |
| O=C(NN1C(=O)c2ccccc2NC1c1ccccn1)c1ccc(Br)cc1 (centres undefined) | inactive: 107% |
| Cc1nc(N2CCOCC2)nc(Oc2ccccc2)c1[N+](=O)[O-] | inconclusive: 98.3% |
| C=C(C)C(=O)Oc1ccc(N2C(=O)CCC2=O)cc1 | inconclusive: 16.1% |
| COc1ccc(OCCC(=O)OCC(=O)NCc2ccco2)cc1 | inactive: 94.4% |
| CC(=O)Nc1ccc(Nc2ccc(N3C(=O)CCCC3=O)cc2[N+](=O)[O-])cc1 | active: 47.4% |
| CN(Cc1ccccc1)c1nc2nonc2nc1N1CCCC(CN2CCCC2=O)C1 (centres undefined) | inconclusive: -614% |
| COc1ccc(NC(=S)N(CCO)Cc2cc3c(C)cc(C)cc3[nH]c2=O)cc1 | inconclusive: 65.7% |

An excerpt of the results above:

| Structure (SMILES) | binding response (% of control) |
| --- | --- |
| COc1ccc(NC(=O)C2CCC(CNc3c(N4CCOCC4)c(=O)c3=O)CC2)cc1Cl (centres undefined) | inconclusive: 91.5% |
| CCOC(=O)c1ccc(NC(=O)c2nc[nH]c2C(=O)N[C@@H](CCCCNC(=O)OC(C)(C)C)C(=O)OC(C)(C)C)cc1 | inconclusive: 115% |

Remaining list, next part:

| Structure (SMILES) | binding response (% of control) |
| --- | --- |
| CCOC(=O)/C=C/C(=O)OCC(=O)Nc1ccc([N+](=O)[O-])cc1 | inconclusive: 98.4% |
| Cc1ccc2nc(/C(C#N)=C\c3ccc([N+](=O)[O-])o3)[nH]c2c1 | inactive: 99.7% |
| N#C/C(=C\c1c(N2CCCCC2)nc2ccccn2c1=O)S(=O)(=O)c1ccccc1 | inconclusive: 51% |
| c1cn2c(Nc3ccc4c(c3)OCCO4)c(-c3ccc(N4CCOCC4)cc3)nc2cn1 | inconclusive: 91.5% |
| COc1ccccc1NC(=O)N1c2ccccc2NC(=O)CC1C (centres undefined) | inconclusive: 123% |
| N/C(=N\OC(=O)CCCOc1ccc(Cl)cc1Cl)c1ccncc1 | inconclusive: 86.7% |
| O=C(c1ccccn1)C1CCCN(Cc2nc(Cc3cccc(F)c3)no2)C1 (centres undefined) | inconclusive: 101% |
| COc1ccc(/C(N)=N/OC(=O)c2cccs2)cc1 | inconclusive: -450% |
| CC(C)c1ccc(-c2nc3ccccc3s2)cc1 | inconclusive: 66.8% |
| C/C(=N\NC(=O)c1cccc(N/N=C(\C)c2ccc([N+](=O)[O-])cc2)c1)c1ccc([N+](=O)[O-])cc1 | inconclusive: 83.7% |
| Cc1occc1C(=O)N/N=C/c1ccc(OCc2ccccc2)cc1 | inconclusive: 109% |
| CCCCSc1nnc2c(n1)OC=Nc1ccccc1-2 | inconclusive: 111% |
| O=c1c2ccccc2c2ccccc2c(=O)n1Cc1ccco1 | inactive: 102% |
| COc1cc(/C=C2\C(=N)N3N=CSC3=NC2=O)cc(Br)c1OC(=O)c1ccco1 | inactive: 102% |
| COC(C[C@@H](O)C[C@H](O)COCc1ccccc1)OC | inconclusive: 93% |
| Oc1c(C(c2ccc(Cl)cc2)N2CCCC2)cc(Cl)c2cccnc12 (centres undefined) | inconclusive: 89.6% |
| CCOC(=O)Cc1csc(NC(=O)c2cc3ccccc3o2)n1 | inconclusive: 105% |
| CC1CCCN(S(=O)(=O)c2ccc(NC(=O)CN3CCN(C)CC3)cc2)C1 (centres undefined) | inactive: 100% |
| CCN(Cc1ccccc1)C(c1ccncc1)c1nnnn1C(C)(C)C (centres undefined) | inactive: 105% |
| Cc1ccc(C(=O)N/C(=C\c2ccco2)C(=O)NCCCn2ccnc2)cc1C | inactive: 104% |
| C=CC(=O)NC(NC(=O)C=C)c1ccccc1F | inconclusive: 89.7% |
| CN(Cc1cccc(Cl)c1Cl)c1ccc(S(=O)(=O)N2CCCCC2)cc1[N+](=O)[O-] | inactive: 94.7% |
